Here are results for one substance from publication PMC5818438.

The chains behind the UniProt entries cited, without tags or fusion partners.
UniProt Q64264: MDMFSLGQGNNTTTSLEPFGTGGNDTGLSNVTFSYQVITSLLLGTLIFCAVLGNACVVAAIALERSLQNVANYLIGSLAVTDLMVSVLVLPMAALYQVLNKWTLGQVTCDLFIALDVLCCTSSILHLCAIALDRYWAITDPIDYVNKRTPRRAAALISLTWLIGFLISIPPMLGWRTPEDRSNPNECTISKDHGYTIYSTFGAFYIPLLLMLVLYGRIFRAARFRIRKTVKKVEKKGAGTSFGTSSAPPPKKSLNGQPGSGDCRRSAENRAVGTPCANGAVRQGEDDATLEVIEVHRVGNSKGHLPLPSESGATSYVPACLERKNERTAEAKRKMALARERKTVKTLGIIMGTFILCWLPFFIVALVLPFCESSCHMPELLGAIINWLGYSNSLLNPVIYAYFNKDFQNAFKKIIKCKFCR
UniProt P35363: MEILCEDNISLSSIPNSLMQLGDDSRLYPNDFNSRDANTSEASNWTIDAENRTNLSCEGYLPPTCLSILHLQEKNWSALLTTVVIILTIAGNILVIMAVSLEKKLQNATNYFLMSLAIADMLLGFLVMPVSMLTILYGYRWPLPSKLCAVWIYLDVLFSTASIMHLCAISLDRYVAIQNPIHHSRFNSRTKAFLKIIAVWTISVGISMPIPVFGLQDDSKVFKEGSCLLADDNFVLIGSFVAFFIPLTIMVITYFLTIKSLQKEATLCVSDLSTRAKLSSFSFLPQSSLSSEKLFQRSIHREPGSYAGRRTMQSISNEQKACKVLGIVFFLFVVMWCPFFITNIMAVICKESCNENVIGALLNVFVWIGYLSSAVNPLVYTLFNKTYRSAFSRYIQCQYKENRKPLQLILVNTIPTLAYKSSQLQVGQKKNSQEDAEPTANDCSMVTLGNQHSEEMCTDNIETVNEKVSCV

The experiment deals with serotonin 5-HT1A receptor (mouse (endogenous in C57Bl/6J brain and mouse cortex neurons)) (UniProt Q64264). Kind of experiment: proximity ligation; Duolink in situ PLA on 5 um coronal mouse brain sections (prefrontal and frontal cortex); primary antibodies 1:100; fluorescent spots counted; mice treated acutely or sub-chronically with saline, ketamine, clozapine (0.3 or 1 mg/kg) or haloperidol (0.1 mg/kg).

No constants are given. Whether binding was seen depends on the method and setting. Binding seen in cells or lysates may run through a third protein. Some binding calls cover weakened binding; strength is not graded here.

In the case of “serotonin 5-HT2A receptor (from UniProt P35363 1-471)”, the binding result is listed as “binds”.
